Values from PubChem BioAssay AID504764 (Drosophila RNAi Screening Center, 2011)

- Purpose: 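Knock-downs that raise or lower a Notch target reporter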 (primary screen)
- Cell system: Drosophila Kc167 cells
- Knock-down reagent: long dsRNA against Drosophila genes
- Duration: about 5 days (4 days dsRNA, then 24 h after transfection)
- Treatment: transfection of constitutively active membrane-tethered Notch lacking the extracellular domain, read 24 h later
- Read-out: 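Firefly luciferase from an E(spl)m3 reporter with active Notch, plus control-promoter and uninduced reporter wells for normalisation; unnormalised counts, duplicate wells a and b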
- Reading the numbers: induced reporter light, run 1, well a and induced reporter light, run 1, well b: higher = more light from the Notch target reporter with active Notch; control promoter light, run 1, well a and control promoter light, run 1, well b: higher = more light from the viral control promoter (cell number, transfection, viability); uninduced reporter light, run 1, well a: higher = more light from the Notch target reporter without active Notch
- Rule for the call: 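Hit if the duplicate-averaged log2 ratio of induced to control-promoter light gives a plate-wise z beyond ±2, or induced to uninduced beyond ±1.8; weak-control or discordant-duplicate wells dropped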
- Meaning of the calls: active = modifier hit (raised or lowered Notch signal); inactive = not a hit
In all, the deposit lists about 22,000 reagents; below is a random part of those with a known target gene and a result. Of all reagents, 403 (1.9%) were called active. 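Unnormalised raw counts per well; ratio z-scores behind the hit calls and whether each hit raises or lowers signal are not deposited.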 Reagents against one gene are numbered here. Names joined by + are all predicted targets of the reagent. Not given: the amount of reagent.

gene knocked down,dsRNA no.,"induced reporter light, run 1, well a","induced reporter light, run 1, well b","control promoter light, run 1, well a","control promoter light, run 1, well b","uninduced reporter light, run 1, well a",activity call
pst (pastrel),1,1.33e5,1.32e5,1.40e5,82250,14935,inactive
Hn (Henna),1,1.07e5,1.06e5,64985,34640,9478,inactive
Rab2,1,1.90e5,1.82e5,1.95e5,1.93e5,14755,inactive
so (sine oculis),1,70320,69865,54120,69110,4735,inactive
CG13538,1,1.89e5,1.81e5,1.59e5,1.38e5,13735,inactive
gus (gustavus),1,1.64e5,1.60e5,1.46e5,1.71e5,11685,inactive
gus (gustavus),2,2.07e5,1.85e5,2.14e5,2.08e5,12060,inactive
MED27 (Mediator complex subunit 27),1,72460,1.03e5,67505,62830,6910,inactive
CG8841,1,1.54e5,1.61e5,1.56e5,1.77e5,14965,inactive
CG32204,1,2.07e5,1.65e5,2.85e5,2.42e5,17390,inactive
mrva (minerva),1,1.26e5,1.03e5,68455,25430,8585,inactive
CG15262,1,95285,1.20e5,1.34e5,1.43e5,8440,inactive
CG4480,1,1.44e5,1.45e5,1.60e5,1.71e5,11095,inactive
CG3909,1,1.31e5,1.86e5,1.46e5,1.06e5,5285,inactive
NijB (Ninjurin B),1,1.79e5,2.11e5,2.63e5,3.08e5,13725,inactive
lgs (legless),1,1.83e5,1.63e5,2.25e5,2.00e5,13360,inactive
Hs3st-A (Heparan sulfate 3-O sulfotransferase-A),1,11340,15225,23625,27580,4095,inactive
Hs3st-A (Heparan sulfate 3-O sulfotransferase-A),2,96845,79155,1.06e5,96750,7465,inactive
Hs3st-A (Heparan sulfate 3-O sulfotransferase-A),3,74525,81770,82125,1.05e5,5815,inactive
Buffy,1,1.16e5,1.22e5,1.49e5,1.36e5,10220,inactive
CG12123,1,1.89e5,1.37e5,1.93e5,1.48e5,12210,inactive
CG6933,1,1.21e5,1.32e5,54585,86145,9055,inactive
CG31798,1,85825,65455,62970,64000,6975,inactive
Ctr1B + Poxm,1,1.08e5,1.21e5,87410,63260,7035,inactive
CG14220,1,2.18e5,2.25e5,1.59e5,1.59e5,8982,active
CG6830,1,53585,74225,75640,56785,5285,inactive
CG7542,1,1.39e5,1.52e5,1.91e5,1.45e5,6895,inactive
GstD7 (Glutathione S transferase D7),1,90995,99185,1.35e5,1.14e5,9580,inactive
CG30486,1,84775,95285,1.22e5,1.14e5,8465,inactive
dod (dodo),1,51330,79245,63960,96870,8082,inactive
CG40045,1,76945,67480,86415,70155,7695,inactive
CG14657,1,1.64e5,1.07e5,1.45e5,1.37e5,8350,inactive
CG14657,2,1.45e5,1.36e5,1.13e5,1.03e5,10860,inactive
Proc-R (Proctolin receptor),1,1.51e5,1.56e5,3.75e5,3.15e5,12340,inactive
TfIIB (Transcription factor IIB),1,1.15e5,1.09e5,67345,80060,14230,inactive
Tsp42Eo (Tetraspanin 42Eo),1,1.49e5,1.40e5,2.24e5,1.91e5,11155,inactive
lawc (retired record),1,,,,,,inactive
Acsf2 (Acyl-CoA synthetase family member 2),1,2.02e5,1.63e5,2.30e5,2.44e5,10860,inactive
CG32523,1,87000,1.12e5,77260,1.08e5,7885,inactive
Slob (Slowpoke binding protein),1,1.20e5,1.40e5,1.74e5,2.10e5,12255,inactive
beta-Man (beta-Mannosidase),1,1.38e5,92045,69740,71765,8910,inactive
beta-Man (beta-Mannosidase),2,1.46e5,1.24e5,1.39e5,1.06e5,9080,inactive
hbt (headbutt),1,94930,1.02e5,92895,91820,11415,inactive
mfas (midline fasciclin),1,1.11e5,1.13e5,83560,77770,9405,inactive
eIF2beta (eukaryotic translation initiation factor 2 subunit beta),1,40370,36740,66045,48850,1200,inactive
Aldh-III (Aldehyde dehydrogenase type III),1,1.71e5,1.61e5,1.48e5,1.57e5,13380,inactive
CG6683,1,1.01e5,1.08e5,81310,26425,10142,inactive
PIG-H (Phosphatidylinositol glycan anchor biosynthesis class H),1,98205,1.14e5,80190,62355,5730,inactive
"SmydA-5 (SET and MYND domain containing, arthropod-specific, member 5)",1,1.43e5,1.26e5,1.35e5,1.24e5,9470,inactive
CG42712 (retired record),1,1.23e5,1.30e5,1.20e5,1.31e5,9650,inactive

As entered above:
Under “control promoter light, run 1, well b”, CG15262 reads 1.43e5
Entry of Proc-R (Proctolin receptor) in “uninduced reporter light, run 1, well a”: 12340
Entry for CG6933 in “uninduced reporter light, run 1, well a”: 9055
For “induced reporter light, run 1, well a”, CG42712 (retired record) has 1.23e5
